In the supplement of paper PMC10849652:
Some of the results follow.

Protein sequences, listed by entry. Tags and fused reporters are not part of them. Lines headed by an entry give the natural chain unless they say otherwise; changes in a name come on top.
UniProt O60220: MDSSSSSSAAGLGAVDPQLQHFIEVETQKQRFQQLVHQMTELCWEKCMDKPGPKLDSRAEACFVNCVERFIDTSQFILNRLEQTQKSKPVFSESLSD
UniProt Q15813: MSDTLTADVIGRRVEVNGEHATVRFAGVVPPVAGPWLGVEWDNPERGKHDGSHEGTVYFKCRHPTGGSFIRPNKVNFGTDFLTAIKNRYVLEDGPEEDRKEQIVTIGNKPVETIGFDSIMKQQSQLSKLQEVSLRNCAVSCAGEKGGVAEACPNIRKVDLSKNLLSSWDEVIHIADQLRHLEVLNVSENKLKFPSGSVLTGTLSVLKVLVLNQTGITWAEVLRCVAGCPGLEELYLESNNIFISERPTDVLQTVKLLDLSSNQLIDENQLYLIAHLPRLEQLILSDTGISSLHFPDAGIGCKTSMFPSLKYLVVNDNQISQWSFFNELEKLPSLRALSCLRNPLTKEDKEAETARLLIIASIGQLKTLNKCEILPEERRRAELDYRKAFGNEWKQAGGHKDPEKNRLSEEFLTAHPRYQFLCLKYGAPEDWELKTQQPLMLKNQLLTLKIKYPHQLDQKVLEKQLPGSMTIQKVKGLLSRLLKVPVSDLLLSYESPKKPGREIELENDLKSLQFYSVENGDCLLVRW
UniProt Q04726: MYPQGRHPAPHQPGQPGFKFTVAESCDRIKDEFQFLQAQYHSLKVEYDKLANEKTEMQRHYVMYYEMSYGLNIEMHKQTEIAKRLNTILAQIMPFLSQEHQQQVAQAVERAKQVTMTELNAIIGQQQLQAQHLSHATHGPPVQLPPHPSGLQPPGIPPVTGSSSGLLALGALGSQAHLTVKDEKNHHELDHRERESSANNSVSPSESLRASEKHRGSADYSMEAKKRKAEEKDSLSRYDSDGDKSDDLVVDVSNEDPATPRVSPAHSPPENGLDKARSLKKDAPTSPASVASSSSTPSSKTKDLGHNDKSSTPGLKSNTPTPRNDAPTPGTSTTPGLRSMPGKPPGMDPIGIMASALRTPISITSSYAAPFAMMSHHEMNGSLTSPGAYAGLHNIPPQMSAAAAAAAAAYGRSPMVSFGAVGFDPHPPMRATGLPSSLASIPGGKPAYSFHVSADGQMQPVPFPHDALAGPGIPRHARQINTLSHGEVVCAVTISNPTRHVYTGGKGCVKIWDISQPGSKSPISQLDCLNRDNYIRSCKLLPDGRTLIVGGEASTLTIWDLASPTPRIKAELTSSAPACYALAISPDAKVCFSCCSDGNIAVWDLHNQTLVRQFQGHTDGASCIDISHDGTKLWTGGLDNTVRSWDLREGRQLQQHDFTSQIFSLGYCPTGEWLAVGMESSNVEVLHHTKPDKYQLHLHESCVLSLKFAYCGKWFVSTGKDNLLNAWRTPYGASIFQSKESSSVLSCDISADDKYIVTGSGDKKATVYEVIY
UniProt O14925: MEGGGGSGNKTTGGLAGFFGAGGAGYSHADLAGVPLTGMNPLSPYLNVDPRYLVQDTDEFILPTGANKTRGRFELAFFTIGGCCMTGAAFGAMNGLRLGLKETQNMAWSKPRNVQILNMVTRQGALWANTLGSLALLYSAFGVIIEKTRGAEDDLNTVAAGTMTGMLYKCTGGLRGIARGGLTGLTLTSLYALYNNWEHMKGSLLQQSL
UniProt Q8IYQ7: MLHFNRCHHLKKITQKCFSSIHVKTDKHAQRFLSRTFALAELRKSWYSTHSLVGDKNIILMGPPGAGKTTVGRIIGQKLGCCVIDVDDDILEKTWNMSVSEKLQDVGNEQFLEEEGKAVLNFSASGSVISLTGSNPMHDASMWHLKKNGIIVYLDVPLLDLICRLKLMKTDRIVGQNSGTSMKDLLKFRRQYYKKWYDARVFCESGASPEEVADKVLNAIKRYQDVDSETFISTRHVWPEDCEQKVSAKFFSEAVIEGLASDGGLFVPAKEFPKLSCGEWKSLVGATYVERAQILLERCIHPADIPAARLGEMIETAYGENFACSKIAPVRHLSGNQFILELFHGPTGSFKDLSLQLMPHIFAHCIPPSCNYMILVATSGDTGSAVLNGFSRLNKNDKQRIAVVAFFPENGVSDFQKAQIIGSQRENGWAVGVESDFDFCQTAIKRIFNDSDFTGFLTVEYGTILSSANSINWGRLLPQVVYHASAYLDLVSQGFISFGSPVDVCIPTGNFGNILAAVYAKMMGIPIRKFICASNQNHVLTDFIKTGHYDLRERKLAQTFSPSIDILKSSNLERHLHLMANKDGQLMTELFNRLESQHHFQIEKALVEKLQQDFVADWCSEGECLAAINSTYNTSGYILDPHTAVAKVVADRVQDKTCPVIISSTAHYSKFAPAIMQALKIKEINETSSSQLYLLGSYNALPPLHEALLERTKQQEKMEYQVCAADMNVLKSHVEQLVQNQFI
UniProt Q9Y4C2: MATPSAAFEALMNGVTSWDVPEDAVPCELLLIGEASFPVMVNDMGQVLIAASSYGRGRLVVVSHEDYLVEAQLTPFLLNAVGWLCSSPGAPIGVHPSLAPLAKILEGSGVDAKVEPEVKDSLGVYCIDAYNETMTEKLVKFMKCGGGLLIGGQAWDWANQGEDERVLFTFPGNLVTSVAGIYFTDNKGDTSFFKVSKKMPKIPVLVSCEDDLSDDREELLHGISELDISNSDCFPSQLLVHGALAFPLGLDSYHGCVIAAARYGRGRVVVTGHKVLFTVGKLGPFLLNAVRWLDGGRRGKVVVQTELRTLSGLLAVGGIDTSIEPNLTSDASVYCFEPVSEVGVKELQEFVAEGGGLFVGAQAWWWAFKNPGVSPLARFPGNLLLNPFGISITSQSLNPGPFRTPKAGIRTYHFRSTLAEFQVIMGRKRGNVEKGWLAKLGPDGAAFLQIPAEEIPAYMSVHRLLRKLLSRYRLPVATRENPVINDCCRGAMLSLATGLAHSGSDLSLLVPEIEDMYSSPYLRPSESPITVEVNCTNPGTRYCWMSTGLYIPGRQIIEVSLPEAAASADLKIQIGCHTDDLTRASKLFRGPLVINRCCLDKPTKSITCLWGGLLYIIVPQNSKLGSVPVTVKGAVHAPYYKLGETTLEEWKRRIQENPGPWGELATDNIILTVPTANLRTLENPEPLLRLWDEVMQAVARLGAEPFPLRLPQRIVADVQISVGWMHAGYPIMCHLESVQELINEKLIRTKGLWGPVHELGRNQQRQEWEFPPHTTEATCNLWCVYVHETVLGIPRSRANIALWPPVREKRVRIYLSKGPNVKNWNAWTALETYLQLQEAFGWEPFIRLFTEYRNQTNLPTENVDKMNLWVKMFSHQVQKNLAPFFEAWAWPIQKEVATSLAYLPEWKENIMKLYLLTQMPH
UniProt Q9BU02: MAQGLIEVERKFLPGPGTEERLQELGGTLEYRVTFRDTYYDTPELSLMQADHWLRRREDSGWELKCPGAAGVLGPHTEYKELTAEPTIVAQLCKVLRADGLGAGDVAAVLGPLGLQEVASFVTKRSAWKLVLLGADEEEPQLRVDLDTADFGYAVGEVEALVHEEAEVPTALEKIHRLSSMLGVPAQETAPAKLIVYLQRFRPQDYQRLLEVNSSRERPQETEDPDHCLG

Compound: c1cn2cc(-c3ccc4cn[nH]c4c3)nc(Nc3ccc(N4CCOCC4)cc3)c2n1 [entospletinib]
Assay: log2 fold change, soluble protein after heating vs DMSO (PISA); higher = thermal stabilisation; K562 cells, 10 uM, 30 min; active = over 0.2 and 3.5 SD of the protein, either way, in both replicates (recomputed)
Procedure, shortened: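 K562 cells (2×10^6 cells/mL) were treated with 10 μM compound for 30 min, and aliquots were heated for 3 min over 48°C-58°C. Pooled aliquots were extracted in PBS with 0.5% NP-40 at 4°C, and the supernatant after 21,000xg for 90 min was measured by TMTpro 16plex LC-MS/MS with channel sums equalised. Reported thermal stability, relative to control samples and from duplicates, is a log2 fold change.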

Row | Target | log2 fold change
1 | TIMM8A (UniProt O60220) | inactive: 0.052
2 | TBCE (UniProt Q15813) | inactive: 0.112
3 | TLE3 isoform 4 (UniProt Q04726) | inactive: -0.007
4 | TIMM23 (UniProt O14925) | inactive: 0.038
5 | THNSL1 (UniProt Q8IYQ7) | inactive: 0.09
6 | TCAF1 (UniProt Q9Y4C2) | inactive: 0.063
7 | THTPA (UniProt Q9BU02) | inactive: -0.104
